This assay concerns scopolamine-treated rats. Nature of the assay: Two-trial object recognition paradigm in scopolamine-treated rats. Type of assay: in vivo, Sprague-Dawley rats. Conditions: for Memory Performance (N-F, difference in time spent with the novel object and familiar object): scopolamine 0.3 mg/kg i.p., mean ± SEM.

The text below walks through data of patent US20100152108A1, “METHODS AND COMBINATION THERAPIES FOR TREATING ALZHEIMER'S DISEASE” (priority 2006, published 2010).

`COc1cc2c(cc1OC)C(=O)C(CC1CCN(Cc3ccccc3)CC1)C2` (centres unmarked) [Donepezil, 2-[(1-benzyl-4-piperidyl)methyl]-5,6-dimethoxy-2,3-dihydroinden-1-one]: the “Memory Performance (N-F, difference in time spent with the novel object and familiar object)” value reads like this: (Donepezil 0.01 mg/kg i.p. + vehicle p.o.) 1.88 ± 0.97 s; (Donepezil 0.03 mg/kg i.p. + vehicle p.o.) 1.17 ± 2.22 s; (Donepezil 1 mg/kg i.p. + vehicle p.o.) 8.8 ± 1.37 s. For the same molecule, the “effect at doses below the maximally effective dose, tested individually” value (dimebon 2.5 mg/kg oral, donepezil 0.03 mg/kg intraperitoneal) is recorded as “only partially effective”. Where the note is “intraperitoneal”, this molecule yielded a maximally effective dose of 1 mg/kg.
